In publication PMC11021452, “Exposing the molecular heterogeneity of glycosylated biotherapeutics” (Nature Communications, 2024):
No constants are given. Whether binding was seen depends on the method and setting. Some binding calls cover weakened binding; strength is not graded here. Tags and fused reporters may be left off the sequences shown.

Molecular target: MHCII beta chain construct CLIP-linker-TEV-DPB1*05:01 extracellular domain-Jun zipper-SpyTag003-His6
Test: native MS; DIA-PTCR with static nanospray on the co-expressed, co-purified complex; 10 µM, exchanged into 200 mM ammonium acetate; both purified

B1: MHCII alpha chain construct DPA1*02:02 extracellular domain-Fos zipper-Avi-His6 (full-length alpha chain) (domain or fragment)
MHC II alpha: GAIKADHVSTYAMFVQTHRPTGEFMFEFDEDEQFYVDLDKKETVWHLEEFGRAFSFEAQGGLANIAILNNNLNTLIQRSNHTQAANDPPEVTVFPKEPVELGQPNTLICHIDRFFPPVLNVTWLCNGEPVTEGVAESLFLPRTDYSFHKFHYLTFVPSAEDVYDCRVEHWGLDQPLLKHWEAQEPIQMPETTESSADLVPRGSLTDTLQAETDQLEDEKSALQTEIANLLKEKEKLEFILAAGGSGGSGSGATNFSLLKQAGDVEENPG
modifications: glycosylated; a non-native glycosylation site on the P2A peptide
binding: binds
